PubChem BioAssay AID1159578, Peter MacCallum Cancer Centre – 2015

Purpose: 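Knock-downs that alter how fast lymphatic endothelial cells migrate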 (primary screen)
System: human lymphatic endothelial cells
Reagent: siRNA pool against human genes, 40 nM
Time to read-out: 48 h after transfection
Measured: 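Cells stained with dye and imaged after a scratch; covered wound area and nuclei counted, duplicates averaged, migration set against mock wells and turned into a robust z-score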
Reading the numbers: migration robust z-score: higher = faster migration into the scratch; nuclei per well: higher = more cells in the well
Rule for the call: 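Pools averaging fewer than 3300 nuclei are never called; remaining pools count as changed when migration robust z lies outside -2 to 2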
Meaning of the calls: active = migration changed; inactive = no migration change, or too few cells
This is one part, drawn at random, of about 18,000 reagents tested. In the full data, about 1,030 (5.7%) were called active. 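Inactive calls also include pools with fewer than 3300 nuclei, whose migration was not assessed.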 The raw values are shown without normalisation. Entries without a mark were called inactive. Further read-outs or replicates are left out here.

no.	gene knocked down	migration robust z-score	migration class with cell-count check	nuclei per well, duplicate mean
1	KCNH8	-2.99	under 3300 nuclei; migration not judged	2973
2	ZMYND12	-0.76	migration z between -2 and 2; enough cells	4606
3	TMOD4	0.94	migration z between -2 and 2; enough cells	6030
4	DIO3	-0.88	migration z between -2 and 2; enough cells	6750
5	CCDC138	-0.45	migration z between -2 and 2; enough cells	6266
6	WT1-AS	-0.24	migration z between -2 and 2; enough cells	6254
7	FANCG	1.92	migration z between -2 and 2; enough cells	5671
8	ADD1	0.05	migration z between -2 and 2; enough cells	5721
9	TMIE	-0.22	migration z between -2 and 2; enough cells	5329
10	H3C4	0.01	migration z between -2 and 2; enough cells	6092
11	ADGRF1	1.12	migration z between -2 and 2; enough cells	5970
12	PARP14	0.96	migration z between -2 and 2; enough cells	6208
13	SLITRK3	0.76	migration z between -2 and 2; enough cells	6384
14	INTS9	0.07	migration z between -2 and 2; enough cells	5360
15	FOXN2	-0.11	migration z between -2 and 2; enough cells	5889
16	TRIM21	1.06	migration z between -2 and 2; enough cells	7045
17	NEK4	-1.04	migration z between -2 and 2; enough cells	7861
18	HSP90B1	-1.01	migration z between -2 and 2; enough cells	5440
19	KIR3DP1	-0.3	migration z between -2 and 2; enough cells	5948
20	CRYGS	0.96	migration z between -2 and 2; enough cells	6519
21	TMSB4X	1.97	migration z between -2 and 2; enough cells	6746

Sorted by “migration robust z-score” (highest first): 7 of the entries above.
gene knocked down	migration robust z-score	migration class with cell-count check	nuclei per well, duplicate mean
ADGRF1	1.12	migration z between -2 and 2; enough cells	5970
TRIM21	1.06	migration z between -2 and 2; enough cells	7045
PARP14	0.96	migration z between -2 and 2; enough cells	6208
SLITRK3	0.76	migration z between -2 and 2; enough cells	6384
INTS9	0.07	migration z between -2 and 2; enough cells	5360
FOXN2	-0.11	migration z between -2 and 2; enough cells	5889
NEK4	-1.04	migration z between -2 and 2; enough cells	7861

Next reagents follow.
no.	gene knocked down	migration robust z-score	migration class with cell-count check	nuclei per well, duplicate mean
22	ATP13A5	-1.89	migration z between -2 and 2; enough cells	5277
23	FCRL1	-0.7	migration z between -2 and 2; enough cells	6521
24	SLITRK4	0.16	migration z between -2 and 2; enough cells	5883
25	VPS4B	1.04	migration z between -2 and 2; enough cells	5499
26	SEC31A	-1.57	migration z between -2 and 2; enough cells	3982
27	STT3A	-0.86	migration z between -2 and 2; enough cells	5612
28	CPSF3	-0.75	migration z between -2 and 2; enough cells	5628
29	ZAR1	-0.04	migration z between -2 and 2; enough cells	5519
30	HHEX	-0.76	migration z between -2 and 2; enough cells	4522
31	PES1	1.23	migration z between -2 and 2; enough cells	5142
32	TMEM244	-0.62	migration z between -2 and 2; enough cells	7251
33	SPIN3	-0.12	migration z between -2 and 2; enough cells	5878
34	CD1A	0.14	migration z between -2 and 2; enough cells	6338
35	CDK5	-0.39	migration z between -2 and 2; enough cells	5704
36	NUDT6	0.28	migration z between -2 and 2; enough cells	4317
37	SRSF10	1.18	migration z between -2 and 2; enough cells	5986
38	VPS26C	1	migration z between -2 and 2; enough cells	4816
39	GSKIP	-0.81	migration z between -2 and 2; enough cells	3314
40	GINS4	-0.7	migration z between -2 and 2; enough cells	5963
41	ROCK2	-0.02	migration z between -2 and 2; enough cells	5218
42	ASXL1	-0.93	migration z between -2 and 2; enough cells	5628
43	H3C14	0.22	migration z between -2 and 2; enough cells	5704
44	IFRD1	-0.68	migration z between -2 and 2; enough cells	5556
45	SNRNP70	-0.69	migration z between -2 and 2; enough cells	6196
46	ABCB5	0.55	migration z between -2 and 2; enough cells	5396
47	GRAP2	0.16	migration z between -2 and 2; enough cells	5788
48	RNLS	1.04	migration z between -2 and 2; enough cells	6268
49	C1orf94	-1.7	migration z between -2 and 2; enough cells	5116
50	ADI1	1.5	migration z between -2 and 2; enough cells	5906
51	PLAGL1	-3.87	under 3300 nuclei; migration not judged	3295
52	NUDT9	-0.29	migration z between -2 and 2; enough cells	5606
53	WDR86	-0.08	migration z between -2 and 2; enough cells	5458
54	GPIHBP1	-0.5	migration z between -2 and 2; enough cells	5887
55	SLC15A2	-0.03	migration z between -2 and 2; enough cells	6625
56	RPL38	-0.16	migration z between -2 and 2; enough cells	3967
57	FLG2	-2.34 (active)	migration z below -2; enough cells	4867
